System: H3M11 cardiomyocytes
Assay: Microelectrode array recording of selected cardiomyocytes
Type: cell-based, human
Conditions: 100 nM E-4031; from 350 ms before addition
Excerpt: H3M11, one of the transgenic hES lines carrying the mouse α-MHCneo transgene, was differentiated in END-2 conditioned media to induce cardiomyocytes and then selected with G418 for 1 week. G418-selected H3M11 cardiomyocytes were dissociated and plated on microelectrode array chips each containing 64 electrodes (Multi Channel Systems MCS GmbH, Reutlingen, Germany). Extracellular recordings were made with the MEA1060 amplifier and MC-Rack software. Sampling rate was 10 kHz. A control recording was made before addition of compounds. Isoproterenol and E-4031 (Sigma Aldrich) were dissolved in water and added to the MEA chamber and allowed to equilibrate for 10-30 min.

Cc1cccc(CCN2CCC(C(=O)c3ccc(NS(C)(=O)=O)cc3)CC2)n1 [E-4031]
QT interval: 580 ms

Source: US8318489B2, “Prostacyclin directed differentiation of cardiomyocytes from human embryonic stem cells” (priority 2005, dated 2012)
